Measured values taken from PMC10435467.
These are yes or no findings as the source states them, for the method shown. Binding seen in cells or lysates may run through a third protein. Some entries that bind do so weakly or less than the wild type.

Sequences of proteins named here, by UniProt entry; tags and fusion partners are left off. A change or cut given only in a name is not applied to a line headed by its entry. A line that says so, or that is headed by a name, gives the form on record, which may keep a tag or linker.
RORγt (P51450-2, form named): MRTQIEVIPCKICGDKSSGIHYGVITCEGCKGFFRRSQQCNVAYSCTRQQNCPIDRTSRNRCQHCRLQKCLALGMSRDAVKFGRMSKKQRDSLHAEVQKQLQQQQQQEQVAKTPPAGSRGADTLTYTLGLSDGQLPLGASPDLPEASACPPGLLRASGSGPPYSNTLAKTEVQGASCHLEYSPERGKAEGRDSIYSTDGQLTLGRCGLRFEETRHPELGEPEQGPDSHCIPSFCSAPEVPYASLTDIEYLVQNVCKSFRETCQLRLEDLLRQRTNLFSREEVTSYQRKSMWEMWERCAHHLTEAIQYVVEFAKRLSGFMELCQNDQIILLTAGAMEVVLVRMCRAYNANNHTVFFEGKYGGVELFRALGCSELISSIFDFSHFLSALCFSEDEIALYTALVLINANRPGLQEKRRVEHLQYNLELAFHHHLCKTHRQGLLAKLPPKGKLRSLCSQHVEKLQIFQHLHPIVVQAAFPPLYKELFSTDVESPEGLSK

Tests used:
[1] = target: T1, Raftlin1 (mouse (endogenous in CD4+ T cells of C57BL/6 mice)) (UniProt Q6A0D4); assay: co-IP; endogenous proteins, lysate of CD4+ T cells from colonic lamina propria of SFB colonized mice; IP with anti-RORγt or anti-Raftlin1, immunoblot
T1 sequence: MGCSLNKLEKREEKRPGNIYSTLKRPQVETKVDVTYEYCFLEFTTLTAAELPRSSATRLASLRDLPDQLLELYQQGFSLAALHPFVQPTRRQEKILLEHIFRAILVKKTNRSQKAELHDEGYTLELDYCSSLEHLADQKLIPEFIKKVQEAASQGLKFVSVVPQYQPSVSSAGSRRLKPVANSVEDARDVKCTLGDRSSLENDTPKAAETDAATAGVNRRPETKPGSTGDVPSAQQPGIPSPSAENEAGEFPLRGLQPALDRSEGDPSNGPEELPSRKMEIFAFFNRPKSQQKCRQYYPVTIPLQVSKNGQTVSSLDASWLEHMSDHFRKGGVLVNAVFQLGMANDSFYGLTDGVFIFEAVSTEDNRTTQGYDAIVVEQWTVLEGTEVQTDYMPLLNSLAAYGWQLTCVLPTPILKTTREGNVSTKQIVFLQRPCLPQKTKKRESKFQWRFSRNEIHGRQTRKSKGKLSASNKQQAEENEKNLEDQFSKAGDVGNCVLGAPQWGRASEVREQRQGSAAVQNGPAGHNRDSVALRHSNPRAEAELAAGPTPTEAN

[2] = target: T1, Raftlin1 (mouse (endogenous in CD4+ T cells of C57BL/6 mice)); assay: co-IP; endogenous proteins, lysate (NP-40 buffer) of CD4+ T cells from colonic lamina propria of C. rodentium infected mice (WT or Raftlin1^ΔLLNSL); IP with anti-RORγt or anti-Raftlin1, protein A/G beads, immunoblot

- binding [2]: binds
Substance: RORγt (from UniProt P51450-2 1-495)
- binding [1]: no binding (condition: in SFB colonized mice)
